Results on 33 compounds are retold here after PubChem BioAssay AID1487 (National Center for Advancing Translational Sciences (NCATS), 2009).

Structures are written as SMILES. Values joined by “and” are separate entries in the source; they are usually repeats but may differ in a detail not shown here. Equal values may be shown once. Some of the results follow. These are further read-outs of the screen, such as a control signal, another cell line or another target. No call is given for them. Most of these compounds were active or inconclusive in the main read-out, so they are no random draw. Words in brackets tell the shape of the fitted curve; partial curves, single points and poor fits give uncertain potencies.

The nature of the assay: qHTS Assay for Modulators of Lamin A Splicing. As to conditions: HeLa LMNA splicing GFP/RFP minigene ratio, 48 h. In short, it runs like this:
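S3 HeLa cells stably expressing lamin A-EGFP splicing minigene plus DsRed2, 600 cells/well, 48 h compound exposure at 37C. Laser-scanning cytometry; analysed as GFP (500-530 nm)/RFP (575-640 nm) total intensity ratio; 0.5% DMSO vehicle.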

Setting [1] is: measured here: GFP splicing reporter channel.
The mark [2] stands for this setting: measured here: RFP viability control channel.

As a reminder, the AC50 is the concentration at which the activity in the assay is half-maximal. Take `Cc1c(Nc2nc3ccccc3nc2NS(=O)(=O)c2cccs2)c(=O)n(-c2ccccc2)n1C`: the AC50 reads like this: under setting [1], 6.31 µM [falling, single point]; under setting [2], 6.31 µM [falling, single point].

As to `C/C(Cl)=C\Cn1c(O)c(N=NC(N)=S)c2cc(Br)ccc21`, the AC50 under setting [1] is 3.55 µM [rising, partial curve]. Take `CCn1c(SCCOc2ccc(Cl)cc2)nnc1-c1cccs1`: the AC50 was 14.1 µM [rising, single point] under setting [1] and 22.4 µM [rising, single point] under setting [2].

Consider `CCCCNS(=O)(=O)c1ccc2nc(-c3cccs3)cc(C(=O)NCC(OC)OC)c2c1`, for which the AC50 under setting [2] is 0.282 µM [falling, partial curve]. As for `Cc1ccc2nc(NS(C)(=O)=O)sc2c1`, the AC50 under setting [1] was 14.1 µM [rising, partial curve, poor fit] and the AC50 under setting [2] was 8.91 µM [rising, partial curve, poor fit]. `CC(C)(C)NC(=O)C(c1ccco1)N(Cc1ccc2c(c1)OCO2)C(=O)Cn1nnc2ccccc21` (centres undefined): the AC50 under setting [1] is 15.8 µM [rising, single point]. Turning to `Cc1cccc(N=Nc2c(C)nn(-c3ccccc3)c2N)c1C`, the AC50 under setting [2] is 35.5 µM [rising, single point].

As for `O=[N+]([O-])c1ccc2nc(-[n+]3c(-c4ccccc4)cc(-c4ccccc4)cc3-c3ccccc3)[nH]c2c1`, the AC50 runs as follows: under setting [1], 0.447 µM [rising, full curve, poor fit]; under setting [2], 11.2 µM [rising, partial curve]. Regarding `Cc1ccc(NC(=O)CN2CCc3ccccc3C2)cc1S(=O)(=O)N1CCOCC1`, the AC50 reads like this: under setting [1], 14.1 µM [rising, single point]; under setting [2], 14.1 µM [rising, partial curve].

Consider `O=C(C1CCCO1)N1CCN(C(=S)Nc2cccc(Cl)c2)CC1` (centres undefined), for which the AC50 under setting [2] is 35.5 µM [rising, single point]. For the compound `Cc1cc(C)c2c(N)c3cccc(C)c3nc2n1`, the AC50 under setting [2] was 35.5 µM [falling, single point]. In the case of `CC(=O)OCC(=O)[C@H]1CC[C@H]2[C@@H]3CCC4=CC(=O)CC[C@]4(C)[C@H]3CC[C@]12C`, the AC50 is, setting by setting: under setting [1], 5.62 µM [rising, full curve]; under setting [2], 3.98 µM [rising, partial curve] and 35.5 µM [falling, single point]. As for `CCn1c(SCC(=O)N2CCCc3ccccc32)nnc1-c1c[nH]c2ccccc12`, the AC50 under setting [2] was 14.1 µM [rising, single point]. Take `C/C(=N\NC(=O)c1cccc(N2CCCC2=O)c1)c1ccc(N)cc1`: the AC50 was 4.47 µM [falling, single point] under setting [1] and 6.31 µM [falling, full curve, poor fit] under setting [2].

With `CCOC(=O)c1c(C)c(C(=O)Nc2ccc3c(c2)OCCO3)c(C)n1C`, the AC50 under setting [2] is 35.5 µM [rising, single point]. On to `COc1ccc(CCNC(=S)NCc2ccc(Cl)c(Cl)c2)cc1OC`, for which the AC50 is, setting by setting: under setting [1], 11.2 µM [rising, partial curve, poor fit]; under setting [2], 22.4 µM [rising, partial curve, poor fit]. Consider `O=C(/C=C/c1cccs1)N1CCN(c2ccccc2)CC1`, for which the AC50 was 2.82 µM [falling, partial curve, poor fit] under setting [1] and 0.398 µM [falling, full curve, poor fit] under setting [2]. For `CCN(CC)S(=O)(=O)c1ccc(N2CCOCC2)c(NC(=O)Cc2cccc3ccccc23)c1`, the AC50 under setting [2] was 10 µM [rising, partial curve, poor fit].

On to `COc1cccc(NC(=O)Cn2c(=O)cc(C)c3c(C)nn(-c4cccc(F)c4)c32)c1`, for which the AC50 by setting is: under setting [1], 0.0398 µM [falling, full curve, poor fit]; under setting [2], 31.6 µM [falling, partial curve, poor fit]. Take `CCN1CCN(C(c2ccc(OC)cc2)c2c(O)cc(C)n(Cc3ccco3)c2=O)CC1` (centres undefined): the AC50 under setting [1] is 3.55 µM [rising, partial curve, poor fit] and the AC50 under setting [2] was 31.6 µM [rising, partial curve]. Consider `CCC(=O)Nc1cccc2ccccc12`, for which, under setting [1], the AC50 was 35.5 µM [falling, single point]. In the case of `COCCN(C(=O)C(C)C)c1nnc(-c2ccc(C(C)(C)C)cc2)s1`, under setting [1], the AC50 was 0.0316 µM [rising, full curve].

Take `Cc1ccc(-n2ncc(C(=O)NCCc3ccccc3)c2C2CCN(C(=O)OC(C)(C)C)CC2)c(C)c1`: under setting [2], the half-maximal activity concentration (AC50) was 17.8 µM [rising, single point]. Regarding `c1ccc(-c2ncc(-c3ccn[nH]3)s2)cc1`, the AC50 is 0.0158 µM [falling, full curve, poor fit] under setting [1] and 0.0178 µM [falling, full curve] under setting [2]. `CCCCS(=O)(=O)N1C2=NC(C(=O)OC)=C(C(=O)OC)[C@@H]3Nc4ccccc4[C@]23C[C@H]1C(=O)OC`: the AC50 under setting [2] was 0.0316 µM [falling, full curve, poor fit].

Turning to `c1ccc(-n2cc(CN3CCCC(CN4CCCC4)C3)c(-c3ccc4c(c3)OCO4)n2)cc1` (centres undefined), the half-maximal activity concentration (AC50) under setting [2] is 0.00794 µM [falling, full curve, poor fit]. With `CCOC(C)OCC`, the AC50 under setting [2] was 0.891 µM [falling, single point]. As to `CCCCCCc1cc2cc(C(=O)NCc3ccccc3)c(=N)oc2cc1O`, the AC50 is 10 µM [rising, partial curve, poor fit] under setting [1] and 10 µM [rising, partial curve] under setting [2]. In the case of `COc1ccc([N+](=O)[O-])cc1C1NN=C(c2ccccc2O)S1` (centres undefined), the AC50 under setting [2] is 28.2 µM [falling, single point].

As to `COc1ccc(-c2nn(-c3ccccc3)cc2CNC(=O)c2cccc([N+](=O)[O-])c2)cc1`, the AC50 was 1.12 µM [rising, single point] under setting [1] and 0.355 µM [rising, partial curve] under setting [2]. As for `C/C(CC(=O)Nc1ccc(Cl)cc1Cl)=N\NC(N)=S`, the AC50 runs as follows: under setting [1], 12.6 µM [falling, single point]; under setting [2], 6.31 µM [falling, single point]. Consider `C#CCn1c(=O)c2c(ncn2C)n(C)c1=O`, for which the AC50 under setting [1] is 5.62 µM [falling, partial curve, poor fit]. For the compound `Cc1ccc(N2C(=O)CC(Sc3nc4ccccc4o3)C2=O)cc1Cl` (centres undefined), the AC50 was 35.5 µM [falling, single point] under setting [1] and 35.5 µM [falling, single point] under setting [2].
